Laboratory results taken from article PMC10863919.
Results are given in words; binding and its absence hold for the method and conditions named. In cells and extracts the contact can be indirect. Binding can be weak; no strength is given.

Protein sequences, listed by entry. Tags and fused reporters are not part of them. Lines headed by an entry give the natural chain unless they say otherwise; changes in a name come on top.
UniProt O95197: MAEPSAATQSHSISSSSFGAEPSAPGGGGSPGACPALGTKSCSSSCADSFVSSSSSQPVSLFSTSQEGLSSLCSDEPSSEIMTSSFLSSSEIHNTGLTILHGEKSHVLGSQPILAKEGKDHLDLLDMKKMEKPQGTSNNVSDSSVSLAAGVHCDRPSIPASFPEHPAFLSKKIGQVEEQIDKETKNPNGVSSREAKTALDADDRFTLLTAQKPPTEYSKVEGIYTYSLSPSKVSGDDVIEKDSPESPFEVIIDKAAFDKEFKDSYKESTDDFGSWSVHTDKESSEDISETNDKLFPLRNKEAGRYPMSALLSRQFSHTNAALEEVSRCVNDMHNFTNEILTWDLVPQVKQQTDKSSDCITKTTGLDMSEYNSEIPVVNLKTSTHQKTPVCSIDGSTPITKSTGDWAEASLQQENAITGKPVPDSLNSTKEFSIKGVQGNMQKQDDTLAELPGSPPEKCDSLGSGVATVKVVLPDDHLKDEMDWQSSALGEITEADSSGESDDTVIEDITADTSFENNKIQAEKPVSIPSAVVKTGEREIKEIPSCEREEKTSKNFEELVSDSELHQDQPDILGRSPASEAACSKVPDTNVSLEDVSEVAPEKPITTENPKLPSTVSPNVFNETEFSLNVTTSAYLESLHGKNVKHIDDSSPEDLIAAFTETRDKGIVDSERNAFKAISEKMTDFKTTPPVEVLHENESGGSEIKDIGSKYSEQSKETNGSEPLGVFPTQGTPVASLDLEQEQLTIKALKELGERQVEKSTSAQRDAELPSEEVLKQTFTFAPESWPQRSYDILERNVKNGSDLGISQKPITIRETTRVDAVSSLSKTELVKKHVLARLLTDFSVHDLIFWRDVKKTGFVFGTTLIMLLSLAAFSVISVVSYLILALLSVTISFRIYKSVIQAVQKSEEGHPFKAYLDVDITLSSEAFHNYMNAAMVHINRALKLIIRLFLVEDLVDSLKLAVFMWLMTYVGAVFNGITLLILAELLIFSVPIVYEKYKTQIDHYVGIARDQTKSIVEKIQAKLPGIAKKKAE

Target: Reticulon 3 (RTN3), expressed in HUVECs (human) (UniProt O95197)
Assay: co-IP; HUVECs, plasmids transfected for 48 h; lysate; anti-myc or anti-flag magnetic beads (Beyotime); performed as in ref. 12

binding: binds
B1: Ceramide synthase 1 (CERS1) in HUVECs (enzyme, UniProt P27544 1-350)
chain: MAAAGPAAGPTGPEPMPSYAQLVQRGWGSALAAARGCTDCGWGLARRGLAEHAHLAPPELLLLALGALGWTALRSAATARLFRPLAKRCCLQPRDAAKMPESAWKFLFYLGSWSYSAYLLFGTDYPFFHDPPSVFYDWTPGMAVPRDIAAAYLLQGSFYGHSIYATLYMDTWRKDSVVMLLHHVVTLILIVSSYAFRYHNVGILVLFLHDISDVQLEFTKLNIYFKSRGGSYHRLHALAADLGCLSFGFSWFWFRLYWFPLKVLYATSHCSLRTVPDIPFYFFFNALLLLLTLMNLYWFLYIVAFAAKVLTGQVHELKDLREYDTAEAQSLKPSKAEKPLRNGLVKDKRF
